Measured values: patent publication US11957127B1, “1,3-bis(naphthalen-2-yloxy)propan-2-one as an eco-friendly insecticidal agent against Spodoptera littoralis (boisd.)” (priority 2023, dated 2024)

Test system: Spodoptera littoralis
Test: Insecticidal bioassay screening (castor leaf dip, larval mortality)
Format: in vivo
Conditions: 72 h, slope of regression (LDP) line
Experimental: Five concentrations (200, 100, 50, 25, 12.5 ppm) were designed for this synthetic compound and the reference fenoxycarb compound as the dynamic ingredients based on ppm via diluting the commercial formulation.
In this experiment, castor leaves are immersed in each of the previously prepared concentrations of the components for 10 seconds and then left to dry for 60 minutes. Larvae of the second and fourth instars of each checked strain are prepared with treated leaves in gauze-covered glass containers for 72 hrs. An untreated control is made in which leaves are dipped in triton x-100 and distilled water only. Then the preserved leaves were removed & fresh, untreated leaves were provided for 72 hours. Three replicates (10 larvae each) were checked for each concentration. Daily inspection was carried out for all treatments and mortality percentages were recorded 3 days (72 hours) after treatment. The average mortality percentage was corrected employing Abbott's formula. The corrected mortality rate for each of the previously synthesized compounds is statistically calculated according to Finney (1970). Through this rate, the corresponding concentration test lines (LDP lines) are assessed. Fifty and ninety percent mortality are determined, and the regression values for the checked products were previously evaluated.

O=C(COc1ccc2ccccc2c1)COc1ccc2ccccc2c1 [Compound 4, 1,3-bis(naphthalen-2-yloxy)propan-2-one]
slope ± SE (2nd instar larvae of S. littoralis): 0.256 ± 0.082
slope ± SE (4th instar larvae of S. littoralis): 0.231 ± 0.0823
